Patent publication US6861389B2, “Substituted 2-amino-1,3,5-triazines, their preparation, and their use as herbicides and plant growth regulators” (Aventis CropScience GmbH, priority 2000, dated 2005)
Some entries share one result that the patent states for a list of compounds.

Columns and labels:
[1] = test system: harmful plants such as Sinapis alba, Echinochloa crus-galli, Lolium multiflorum, Stellaria media, Cyperus iria, Amaranthus retroflexus, Setaria viridis and …; test: Post-emergence herbicidal action (greenhouse pot test); type: in vivo, monocotyledonous and dicotyledonous weeds; details: 1 kg and less active substance per hectare, sprayed at three-leaf stage, Avena sativa, 3 to 4 weeks
[2] = test system: harmful plants such as, for example, Cyperus monti, Echinochloa crus-galli and Sagittaria pygmaea; test: Action against harmful plants in rice (paddy rice conditions); type: in vivo, typical rice weeds (broad-leaved and grass weeds); details: applied to paddy water, approximately three weeks after application
[3] = test system: harmful plants such as Stellaria media, Lolium multiforum, Amaranthus retroflexus, Sinapis alba, Avena sativa and Setaria viridis; test: Pre-emergence herbicidal action (greenhouse pot test); type: in vivo, monocotyledonous and dicotyledonous weed plants; details: applied to soil cover, 3 to 4 weeks, vs untreated controls

SMILES: CC(C)c1nc(N=CN(C)C)nc(NC(CCc2ccccc2)C2CC2)n1 (racemic) [Compound 2-1]
- herbicidal post-emergence activity (scored visually) [1]: good herbicidal post-emergence activity
- herbicidal action against harmful plants in rice (plant damage scored visually) [2]: very good herbicidal action
- pre-emergence control on harmful plants (plant or emergence damage scored visually) [3]: very good pre-emergence control

SMILES: CC(F)c1nc(N=CN(C)C)nc(NC(CCc2ccccc2)C2CC2)n1 (racemic) [Compound 2-35]
- herbicidal post-emergence activity (scored visually) [1]: good herbicidal post-emergence activity
- herbicidal action against harmful plants in rice (plant damage scored visually) [2]: very good herbicidal action
- pre-emergence control on harmful plants (plant or emergence damage scored visually) [3]: very good pre-emergence control

SMILES: Cc1cccc(CCC(Nc2nc(N=CN(C)C)nc(C(C)F)n2)C2CC2)c1 (racemic) [Compound 2-36]
- herbicidal post-emergence activity (scored visually) [1]: good herbicidal post-emergence activity
- herbicidal action against harmful plants in rice (plant damage scored visually) [2]: very good herbicidal action
- pre-emergence control on harmful plants (plant or emergence damage scored visually) [3]: very good pre-emergence control

SMILES: CC(=Nc1nc(NC(CCc2ccccc2)C2CC2)nc(C(C)(C)F)n1)N(C)C (racemic) [Compound 2-45]
- herbicidal post-emergence activity (scored visually) [1]: good herbicidal post-emergence activity
- herbicidal action against harmful plants in rice (plant damage scored visually) [2]: very good herbicidal action
- pre-emergence control on harmful plants (plant or emergence damage scored visually) [3]: very good pre-emergence control

SMILES: CCC(F)c1nc(N=C(C)N(C)C)nc(NC(CCc2ccccc2)C2CC2)n1 (racemic) [Compound 2-55]
- herbicidal post-emergence activity (scored visually) [1]: good herbicidal post-emergence activity
- herbicidal action against harmful plants in rice (plant damage scored visually) [2]: very good herbicidal action
- pre-emergence control on harmful plants (plant or emergence damage scored visually) [3]: very good pre-emergence control

SMILES: CCC(F)c1nc(N=C(C)N(C)C)nc(NC(CCc2cccc(C)c2)C2CC2)n1 (racemic) [Compound 2-56]
- herbicidal post-emergence activity (scored visually) [1]: good herbicidal post-emergence activity
- herbicidal action against harmful plants in rice (plant damage scored visually) [2]: very good herbicidal action
- pre-emergence control on harmful plants (plant or emergence damage scored visually) [3]: very good pre-emergence control

SMILES: CN(C)C=Nc1nc(NC(CCc2ccccc2)C2CCC2)nc(C(C)(C)F)n1 (racemic) [Compound 3-1]
- herbicidal post-emergence activity (scored visually) [1]: good herbicidal post-emergence activity
- herbicidal action against harmful plants in rice (plant damage scored visually) [2]: very good herbicidal action
- pre-emergence control on harmful plants (plant or emergence damage scored visually) [3]: very good pre-emergence control

SMILES: CC(=Nc1nc(NC(CCc2ccccc2)C2CCC2)nc(C(C)(C)F)n1)N(C)C (racemic) [Compound 3-14]
- herbicidal post-emergence activity (scored visually) [1]: good herbicidal post-emergence activity
- herbicidal action against harmful plants in rice (plant damage scored visually) [2]: very good herbicidal action
- pre-emergence control on harmful plants (plant or emergence damage scored visually) [3]: very good pre-emergence control

SMILES: CCC(=Nc1nc(NC(CCc2ccccc2)C2CCC2)nc(C2CC2)n1)N(C)C (racemic) [Compound 3-25]
- herbicidal post-emergence activity (scored visually) [1]: good herbicidal post-emergence activity
- herbicidal action against harmful plants in rice (plant damage scored visually) [2]: very good herbicidal action
- pre-emergence control on harmful plants (plant or emergence damage scored visually) [3]: very good pre-emergence control

SMILES: CC(=Nc1nc(NC(CCc2ccc(F)c(F)c2)C2CCC2)nc(C(C)(C)F)n1)N(C)C (racemic) [Compound 3-37]
- herbicidal post-emergence activity (scored visually) [1]: good herbicidal post-emergence activity
- herbicidal action against harmful plants in rice (plant damage scored visually) [2]: very good herbicidal action
- pre-emergence control on harmful plants (plant or emergence damage scored visually) [3]: very good pre-emergence control

SMILES: COc1cccc(CCC(Nc2nc(N=C(C)N(C)C)nc(C(C)(C)F)n2)C2CCC2)c1 (racemic) [Compound 3-38]
- herbicidal post-emergence activity (scored visually) [1]: good herbicidal post-emergence activity
- herbicidal action against harmful plants in rice (plant damage scored visually) [2]: very good herbicidal action
- pre-emergence control on harmful plants (plant or emergence damage scored visually) [3]: very good pre-emergence control

SMILES: CC(=Nc1nc(NC(CCc2cccc(F)c2)C2CCC2)nc(C(C)(C)F)n1)N(C)C (racemic) [Compound 3-40]
- herbicidal post-emergence activity (scored visually) [1]: good herbicidal post-emergence activity
- herbicidal action against harmful plants in rice (plant damage scored visually) [2]: very good herbicidal action
- pre-emergence control on harmful plants (plant or emergence damage scored visually) [3]: very good pre-emergence control

SMILES: CC(=Nc1nc(NC(CCc2ccc(F)cc2)C2CCC2)nc(C(C)(C)F)n1)N(C)C (racemic) [Compound 3-41]
- herbicidal post-emergence activity (scored visually) [1]: good herbicidal post-emergence activity
- herbicidal action against harmful plants in rice (plant damage scored visually) [2]: very good herbicidal action
- pre-emergence control on harmful plants (plant or emergence damage scored visually) [3]: very good pre-emergence control

SMILES: COc1cccc(CCC(Nc2nc(N=C(C)N(C)C)nc(C(C)F)n2)C2CCC2)c1 (racemic) [Compound 3-44]
- herbicidal post-emergence activity (scored visually) [1]: good herbicidal post-emergence activity
- herbicidal action against harmful plants in rice (plant damage scored visually) [2]: very good herbicidal action
- pre-emergence control on harmful plants (plant or emergence damage scored visually) [3]: very good pre-emergence control

SMILES: CC(=Nc1nc(NC(CCc2cccc(F)c2)C2CCC2)nc(C(C)F)n1)N(C)C (racemic) [Compound 3-46]
- herbicidal post-emergence activity (scored visually) [1]: good herbicidal post-emergence activity
- herbicidal action against harmful plants in rice (plant damage scored visually) [2]: very good herbicidal action
- pre-emergence control on harmful plants (plant or emergence damage scored visually) [3]: very good pre-emergence control

SMILES: CC(=Nc1nc(NC(CCc2ccc(F)cc2)C2CCC2)nc(C(C)F)n1)N(C)C (racemic) [Compound 3-47]
- herbicidal post-emergence activity (scored visually) [1]: good herbicidal post-emergence activity
- herbicidal action against harmful plants in rice (plant damage scored visually) [2]: very good herbicidal action
- pre-emergence control on harmful plants (plant or emergence damage scored visually) [3]: very good pre-emergence control

SMILES: CN(C)C=Nc1nc(NC(CCc2ccc(F)c(F)c2)C2CCC2)nc(C(C)(C)F)n1 (racemic) [Compound 3-55]
- herbicidal post-emergence activity (scored visually) [1]: good herbicidal post-emergence activity
- herbicidal action against harmful plants in rice (plant damage scored visually) [2]: very good herbicidal action
- pre-emergence control on harmful plants (plant or emergence damage scored visually) [3]: very good pre-emergence control

SMILES: COc1cccc(CCC(Nc2nc(N=CN(C)C)nc(C(C)(C)F)n2)C2CCC2)c1 (racemic) [Compound 3-56]
- herbicidal post-emergence activity (scored visually) [1]: good herbicidal post-emergence activity
- herbicidal action against harmful plants in rice (plant damage scored visually) [2]: very good herbicidal action
- pre-emergence control on harmful plants (plant or emergence damage scored visually) [3]: very good pre-emergence control

SMILES: CN(C)C=Nc1nc(NC(CCc2cccc(F)c2)C2CCC2)nc(C(C)(C)F)n1 (racemic) [Compound 3-58]
- herbicidal post-emergence activity (scored visually) [1]: good herbicidal post-emergence activity
- herbicidal action against harmful plants in rice (plant damage scored visually) [2]: very good herbicidal action
- pre-emergence control on harmful plants (plant or emergence damage scored visually) [3]: very good pre-emergence control

SMILES: CN(C)C=Nc1nc(NC(CCc2ccc(F)cc2)C2CCC2)nc(C(C)(C)F)n1 (racemic) [Compound 3-59]
- herbicidal post-emergence activity (scored visually) [1]: good herbicidal post-emergence activity
- herbicidal action against harmful plants in rice (plant damage scored visually) [2]: very good herbicidal action
- pre-emergence control on harmful plants (plant or emergence damage scored visually) [3]: very good pre-emergence control

SMILES: CCC(F)c1nc(N=CN(C)C)nc(NC(CCc2ccc(F)c(F)c2)C2CCC2)n1 (racemic) [Compound 3-67]
- herbicidal post-emergence activity (scored visually) [1]: good herbicidal post-emergence activity
- herbicidal action against harmful plants in rice (plant damage scored visually) [2]: very good herbicidal action
- pre-emergence control on harmful plants (plant or emergence damage scored visually) [3]: very good pre-emergence control

SMILES: CCC(F)c1nc(N=CN(C)C)nc(NC(CCc2cccc(OC)c2)C2CCC2)n1 (racemic) [Compound 3-68]
- herbicidal post-emergence activity (scored visually) [1]: good herbicidal post-emergence activity
- herbicidal action against harmful plants in rice (plant damage scored visually) [2]: very good herbicidal action
- pre-emergence control on harmful plants (plant or emergence damage scored visually) [3]: very good pre-emergence control

SMILES: CCC(F)c1nc(N=CN(C)C)nc(NC(CCc2cccc(F)c2)C2CCC2)n1 (racemic) [Compound 3-70]
- herbicidal post-emergence activity (scored visually) [1]: good herbicidal post-emergence activity
- herbicidal action against harmful plants in rice (plant damage scored visually) [2]: very good herbicidal action
- pre-emergence control on harmful plants (plant or emergence damage scored visually) [3]: very good pre-emergence control

SMILES: CCC(F)c1nc(N=CN(C)C)nc(NC(CCc2ccc(F)cc2)C2CCC2)n1 (racemic) [Compound 3-71]
- herbicidal post-emergence activity (scored visually) [1]: good herbicidal post-emergence activity
- herbicidal action against harmful plants in rice (plant damage scored visually) [2]: very good herbicidal action
- pre-emergence control on harmful plants (plant or emergence damage scored visually) [3]: very good pre-emergence control

SMILES: CCN(C=Nc1nc(NC(CCc2cccc(OC)c2)C2CCC2)nc(C(C)(C)F)n1)CC (racemic) [Compound 3-74]
- herbicidal post-emergence activity (scored visually) [1]: good herbicidal post-emergence activity
- herbicidal action against harmful plants in rice (plant damage scored visually) [2]: very good herbicidal action
- pre-emergence control on harmful plants (plant or emergence damage scored visually) [3]: very good pre-emergence control

SMILES: CCC(F)c1nc(N=CN(CC)CC)nc(NC(CCc2ccc(F)c(F)c2)C2CCC2)n1 (racemic) [Compound 3-85]
- herbicidal post-emergence activity (scored visually) [1]: good herbicidal post-emergence activity
- herbicidal action against harmful plants in rice (plant damage scored visually) [2]: very good herbicidal action
- pre-emergence control on harmful plants (plant or emergence damage scored visually) [3]: very good pre-emergence control

SMILES: CCC(F)c1nc(N=CN(CC)CC)nc(NC(CCc2cccc(OC)c2)C2CCC2)n1 (racemic) [Compound 3-86]
- herbicidal post-emergence activity (scored visually) [1]: good herbicidal post-emergence activity
- herbicidal action against harmful plants in rice (plant damage scored visually) [2]: very good herbicidal action
- pre-emergence control on harmful plants (plant or emergence damage scored visually) [3]: very good pre-emergence control
